{
  "sequences": {"note": "By UniProt entry, the sequences of proteins in these tests, tags left out.", "UniProt O15392": "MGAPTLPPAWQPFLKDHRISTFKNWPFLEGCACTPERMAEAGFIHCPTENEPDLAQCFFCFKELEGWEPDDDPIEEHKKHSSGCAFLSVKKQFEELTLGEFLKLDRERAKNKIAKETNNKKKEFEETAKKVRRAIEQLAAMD"},
  "source": "paper PMC3718744",
  "target": "T1, Flag-RecQL4 (full length) (human) (UniProt O94761)",
  "T1 sequence": "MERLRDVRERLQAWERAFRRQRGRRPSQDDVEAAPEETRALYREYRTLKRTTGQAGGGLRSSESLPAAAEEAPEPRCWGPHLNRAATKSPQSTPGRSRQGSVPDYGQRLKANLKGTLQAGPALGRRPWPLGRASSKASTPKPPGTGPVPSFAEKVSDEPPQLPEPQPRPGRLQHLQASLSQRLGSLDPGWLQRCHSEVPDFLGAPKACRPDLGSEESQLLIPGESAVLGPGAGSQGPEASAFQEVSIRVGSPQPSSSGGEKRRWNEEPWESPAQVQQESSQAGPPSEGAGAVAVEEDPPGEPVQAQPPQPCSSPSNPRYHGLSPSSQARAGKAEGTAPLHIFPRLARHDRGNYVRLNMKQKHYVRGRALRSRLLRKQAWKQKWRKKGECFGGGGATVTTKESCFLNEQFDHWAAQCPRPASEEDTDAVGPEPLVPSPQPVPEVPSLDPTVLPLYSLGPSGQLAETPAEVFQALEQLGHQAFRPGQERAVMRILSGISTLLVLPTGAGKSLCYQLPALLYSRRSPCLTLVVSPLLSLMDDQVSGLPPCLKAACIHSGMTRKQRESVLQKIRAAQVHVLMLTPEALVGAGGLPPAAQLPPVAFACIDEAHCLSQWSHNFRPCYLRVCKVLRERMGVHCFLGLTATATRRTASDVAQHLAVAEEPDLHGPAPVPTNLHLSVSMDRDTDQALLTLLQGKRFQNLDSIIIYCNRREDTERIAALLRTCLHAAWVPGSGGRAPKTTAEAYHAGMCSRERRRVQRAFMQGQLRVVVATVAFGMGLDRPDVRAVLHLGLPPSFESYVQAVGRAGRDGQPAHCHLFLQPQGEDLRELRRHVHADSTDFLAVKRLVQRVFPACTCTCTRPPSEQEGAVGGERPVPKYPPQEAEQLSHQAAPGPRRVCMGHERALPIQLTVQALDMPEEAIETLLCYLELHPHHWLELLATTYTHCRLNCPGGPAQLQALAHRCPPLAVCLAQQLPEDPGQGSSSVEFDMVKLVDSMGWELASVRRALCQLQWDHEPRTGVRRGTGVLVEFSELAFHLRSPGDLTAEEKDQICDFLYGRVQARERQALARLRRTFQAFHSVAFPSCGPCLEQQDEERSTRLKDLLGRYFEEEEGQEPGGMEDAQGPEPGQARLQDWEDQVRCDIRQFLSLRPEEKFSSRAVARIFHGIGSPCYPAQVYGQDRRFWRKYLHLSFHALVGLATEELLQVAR",
  "test": "co-IP; lysates of 10^6 transfected U2OS cells (Flag-tagged bait, endogenous prey); anti-Flag-M2 magnetic beads, 4°C, 2 h; lysis buffer 50 mM Tris-HCl pH 7.5, 150 mM NaCl, 1% NP-40, 5 mM EDTA, 5 mM EGTA; Western blot",
  "note": "These are yes or no findings as the source states them, for the method shown. In cells and extracts the contact can be indirect. Some results given as binding are weak or reduced against the parent protein; the word gives no strength. Where a sequence is shown, tags or fusion partners need not be part of it.",
  "data": [
    {"substance": "endogenous survivin (from UniProt O15392 1-142)", "values": [
      {"measurement": "binding", "value": "binds"}
    ]}
  ]
}
